Experimental data: patent publication US12624309B2, “Enol ether properfume” (Firmenich SA, priority 2020, dated 2026)

Assay: Dynamic headspace analysis of air-dried hair swatches treated with leave-on hair conditioner
Details: ± std. dev.; for Dynamic headspace concentration of 2-pentylcyclopentanone, profragrance: leave-on hair conditioner, 35° C.; for Dynamic headspace concentration of the perfumery raw material, reference: free ketone equimolar in leave-on hair conditioner

CCCCCC1CCCC1=COC(C)C(=O)OC (racemic) [Compound 18, (±)-methyl 2-((2-pentylcyclopentylidene)methoxy)propanoate]
Dynamic headspace concentration of 2-pentylcyclopentanone, profragrance (60-90 min sample): 121 ± 12 ng/L | Dynamic headspace concentration of 2-pentylcyclopentanone, profragrance (120-150 min sample): 108 ± 11 ng/L

CCCCCC1CCCC1=O (stereo not shown) [2-pentylcyclopentanone, reference compound]
Dynamic headspace concentration of the perfumery raw material, reference (60-90 min sample): 34 ± 18 ng/L | Dynamic headspace concentration of the perfumery raw material, reference (120-150 min sample): 48.4 ± 23 ng/L
